Assay results: PMC12092773
No constants are given. Whether binding was seen depends on the method and setting. Binding seen in cells or lysates may run through a third protein. Some results given as binding are weak or reduced against the parent protein; the word gives no strength.

Amino acid sequences for entries named in this document (tags omitted). Residues count along the entry.
UniProt Q9P0V8, residues 23-285: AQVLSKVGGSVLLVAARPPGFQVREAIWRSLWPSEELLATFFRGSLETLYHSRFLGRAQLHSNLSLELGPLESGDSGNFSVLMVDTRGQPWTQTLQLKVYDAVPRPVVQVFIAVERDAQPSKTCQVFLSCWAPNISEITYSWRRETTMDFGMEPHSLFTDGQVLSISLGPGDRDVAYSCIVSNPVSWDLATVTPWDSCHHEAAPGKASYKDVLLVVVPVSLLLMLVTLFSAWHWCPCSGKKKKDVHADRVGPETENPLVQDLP

T1: Nerve injury-induced protein 2 (NINJ2) (human (endogenous in SH-SY5Y and HMC3)) (UniProt Q9NZG7)
T1 sequence: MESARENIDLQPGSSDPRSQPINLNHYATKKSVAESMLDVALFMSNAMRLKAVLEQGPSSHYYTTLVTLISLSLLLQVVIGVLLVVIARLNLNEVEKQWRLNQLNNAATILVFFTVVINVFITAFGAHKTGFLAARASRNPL


Legend:
[1] = target: T1, Nerve injury-induced protein 2 (NINJ2) (human (endogenous in SH-SY5Y and HMC3)); assay: co-IP; lysates of Aβ1-42-treated SH-SY5Y cells and LPS-treated HMC3 cells; precleared, incubated overnight at 4 °C with antibodies against SLAMF8 or NINJ2, captured on rProtein A/G Plus MagPoly beads, Western blot; IgG control
[2] = target: Signaling Lymphocytic Activation Molecule Family Member 8 (SLAMF8) (human (endogenous in SH-SY5Y and HMC3)) (UniProt Q9P0V8); assay: as above

binding [2] | Molecule | binding [1]
– | Signaling Lymphocytic Activation Molecule Family Member 8 (SLAMF8) (from UniProt Q9P0V8 23-285) | binds
binds | Nerve injury-induced protein 2 (NINJ2) (protein, UniProt Q9NZG7 1-142) MESARENIDLQPGSSDPRSQPINLNHYATKKSVAESMLDVALFMSNAMRLKAVLEQGPSSHYYTTLVTLISLSLLLQVVIGVLLVVIARLNLNEVEKQWRLNQLNNAATILVFFTVVINVFITAFGAHKTGFLAARASRNPL | –
